Laboratory results published in US20050191245A1, “Nasal administration of calcium channel, blockers for treatment of hypertension and other cardiovascular disorders” (priority 2004, published 2005).

Test system: male Sprague-Dawley rats
Details: rat, in vivo

SMILES: COC(=O)C1=C(C)NC(C)=C(C(=O)OC)C1c1ccccc1[N+](=O)[O-] [nifedipine]
- total distance traveled, drug treated groups compared to vehicle treated group: no significant difference
